Laboratory results: PubChem BioAssay AID1259254 (NCATS, 2017)

Test: 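Gene knock-downs that lead to re-replication, shown by excess G2 DNA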 (primary screen)
Cell system: human HCT116 colorectal cancer cells
Reagents: single siRNA against human genes
Timing: 3 days
Measured: 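Nuclei stained with Hoechst and imaged; cell-cycle phase assigned by DNA content; G2 share scaled per plate, non-targeting siRNA 0%, GMNN siRNA 100%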
Direction: G2 robust z-score and G2 cells, % of GMNN control: higher = more G2 cells, more excess DNA replication; raw share of cells in G2: higher = larger share of cells with G2 DNA content
Rule for the call: 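An siRNA counts as active if its G2 robust z-score lies at least 5 MADs above the screen median; here such calls match roughly 38% of GMNN control or more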
Here is an unselected part of about 59,000 deposited reagents. Of all reagents, about 1,550 (2.6%) are marked active. 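G2 share is only a proxy for re-replication; each gene was hit by three separate siRNAs, and active genes were retested.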 The raw values are shown without normalisation. Reagents against one gene are numbered here. Reagent sequences are not shown. Not stated in the record: the amount of reagent.

target gene | siRNA no. | G2 robust z-score | G2 cells, % of GMNN control | raw share of cells in G2 (%) | Call
SH2D6 | 1 | 1.18 | 11.3 | 7.76 | inactive
SH2D6 | 2 | 4.23 | 32.8 | 15.7 | inactive
SH2D6 | 3 | 0.613 | 7.28 | 5.48 | inactive
JPX | 1 | 0.0212 | 3.12 | 4.38 | inactive
JPX | 2 | -0.329 | 0.649 | 3.25 | inactive
JPX | 3 | 1.95 | 16.7 | 10.1 | inactive
FAM230J | 1 | -0.974 | -3.89 | 1.91 | inactive
FAM230J | 2 | 0.0165 | 3.08 | 4.3 | inactive
FAM230J | 3 | 0.645 | 7.5 | 6.34 | inactive
FAM230J | 4 | 0.851 | 8.95 | 7.3 | inactive
FAM230J | 5 | 5.5 | 41.7 | 22.5 | active
FAM230J | 6 | -0.331 | 0.64 | 4.34 | inactive
WDR49 | 1 | -0.473 | -0.363 | 3.71 | inactive
WDR49 | 2 | -1.07 | -4.56 | 1.5 | inactive
WDR49 | 3 | 0.106 | 3.71 | 4.36 | inactive
FCGR1A | 1 | -0.837 | -2.92 | 4.15 | inactive
FCGR1A | 2 | 1.53 | 13.7 | 8.55 | inactive
FCGR1A | 3 | 0.938 | 9.56 | 8.71 | inactive
TTLL7 | 1 | -1.24 | -5.77 | 3.03 | inactive
TTLL7 | 2 | 2.79 | 22.6 | 12.4 | inactive
TTLL7 | 3 | -0.417 | 0.0301 | 4.8 | inactive
SHISAL2A | 1 | 2.08 | 17.6 | 11.3 | inactive
SHISAL2A | 2 | 0.978 | 9.85 | 7.37 | inactive
SHISAL2A | 3 | 2.03 | 17.3 | 10.8 | inactive
WTAP | 1 | 1.79 | 15.6 | 12.4 | inactive
WTAP | 2 | 0.58 | 7.05 | 6.89 | inactive
WTAP | 3 | 5.97 | 45 | 19.8 | active
HLTF | 1 | 1.52 | 13.6 | 10.3 | inactive
HLTF | 2 | 2.39 | 19.8 | 10.5 | inactive
HLTF | 3 | -0.676 | -1.79 | 3.93 | inactive

Entries listed so far with an active call (2):
target gene | siRNA no. | G2 robust z-score | G2 cells, % of GMNN control | raw share of cells in G2 (%) | Call
FAM230J | 5 | 5.5 | 41.7 | 22.5 | active
WTAP | 3 | 5.97 | 45 | 19.8 | active
